The other results are listed elsewhere or left out. Many values rest on one well or one pass, so single values are uncertain.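 Cells were imaged in 1,536-well plates, and nuclei stained with an antibody against cleaved PARP were counted against all DNA-stained nuclei to give the apoptosis fraction. Screening doses were chosen to leave most cells alive, and resting and induced cleaved-PARP levels differ strongly between cell lines.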
tested on: A101D; assay: cleaved PARP positive nuclei fraction relative to DMSO control; melanoma cells; higher = more apoptosis; details: library dose: low library concentration; 72 h

Compound	cleaved PARP positive nuclei fraction
COCC[n+]1c2c(n(Cc3cnccn3)c1C)C(=O)c1ccccc1C2=O + CC(C)CCN1c2nc(Nc3cc(F)c(O)c(F)c3)ncc2N(C)C(=O)C1C [BID1870] (first compound 0.0004 µM, partner dose 0.2 µM)	471%
CC(C)(C)c1cnc(CSc2cnc(NC(=O)C3CCNCC3)s2)o1 + Cc1cc([N+](=O)[O-])ccc1NS(=O)(=O)c1cc(Cl)ccc1Cl [FH535] (first compound 0.01 µM, partner dose 1 µM)	125%
Cc1ccc(NC(=O)c2cccc(N(C)C)c2)cc1NC(=O)c1ccc(O)cc1 + CCCCCCCCCCCC1=C(O)C(=O)C=C(O)C1=O [Embelin] (first compound 2 µM, partner dose 1.2 µM)	141%
Cc1ccc(NC(=O)c2cccc(N(C)C)c2)cc1NC(=O)c1ccc(O)cc1 + COc1cc(N2CCC(N3CCN(C)CC3)CC2)ccc1Nc1ncc(Cl)c(Nc2ccccc2S(=O)(=O)C(C)C)n1 [NVP-TAE684] (first compound 2 µM, partner dose 0.08 µM)	72.3%
Cn1cncc1[C@@](N)(c1ccc(Cl)cc1)c1ccc2c(c1)c(-c1cccc(Cl)c1)cc(=O)n2C [tipifarnib] + CCc1ccc(CCOc2ccc(CC3SC(=O)NC3=O)cc2)nc1 [pioglitazone] (first compound 0.01 µM, partner dose 2 µM)	42.7%
O=C(CCCCCCC(=O)Nc1ccccc1)NO [vorinostat] + COc1cc(N2CCC(N3CCN(C)CC3)CC2)ccc1Nc1ncc(Cl)c(Nc2ccccc2S(=O)(=O)C(C)C)n1 [NVP-TAE684] (first compound 0.08 µM, partner dose 0.08 µM)	114%
O=C(Nc1cccc(Cl)c1)Nc1ncc(CCNc2ncnc3ccsc23)s1 + COC(=O)c1sccc1S(=O)(=O)Nc1ccc(Nc2ccccc2)cc1OC [GSK0660] (first compound 0.0008 µM, partner dose 1 µM)	58.4%
C=CCn1c(=O)c2cnc(Nc3ccc(N4CCN(C)CC4)cc3)nc2n1-c1cccc(C(C)(C)O)n1 + CC(C)CCN1c2nc(Nc3cc(F)c(O)c(F)c3)ncc2N(C)C(=O)C1C [BID1870] (first compound 0.02 µM, partner dose 0.2 µM)	233%
CO[C@@H]1[C@H](N(C)C(=O)c2ccccc2)C[C@H]2O[C@]1(C)n1c3ccccc3c3c4c(c5c6ccccc6n2c5c31)C(=O)NC4 [Midostaurin] + O=S(=O)(c1ccccc1)N(CC(F)(F)F)c1ccc(C(O)(C(F)(F)F)C(F)(F)F)cc1 [T0901317] (first compound 0.08 µM, partner dose 1.4 µM)	38.9%
Nc1cccc2c1CN(C1CCC(=O)NC1=O)C2=O (centres undefined) [lenalidomide] + COC(=O)c1sccc1S(=O)(=O)Nc1ccc(Nc2ccccc2)cc1OC [GSK0660] (first compound 1 µM, partner dose 1 µM)	32.1%
O=C(Nc1cccc(Cl)c1)Nc1ncc(CCNc2ncnc3ccsc23)s1 + CCc1ccc(CCOc2ccc(CC3SC(=O)NC3=O)cc2)nc1 [pioglitazone] (first compound 0.0008 µM, partner dose 2 µM)	78.6%
COCC[n+]1c2c(n(Cc3cnccn3)c1C)C(=O)c1ccccc1C2=O + O=c1cc(-c2cccc3c2Sc2ccccc2S3)oc(N2CCOCC2)c1 [KU55933] (first compound 0.0004 µM, partner dose 1 µM)	109%
Nc1cccc2c1CN(C1CCC(=O)NC1=O)C2=O (centres undefined) [lenalidomide] + COc1ccc(-c2ccc3c(N4CCOCC4)nc(N4C[C@@H](C)O[C@@H](C)C4)nc3n2)cc1CO [KU0063794] (first compound 1 µM, partner dose 0.02 µM)	56.6%
NC(=O)Nc1cc(-c2cccc(F)c2)sc1C(=O)N[C@H]1CCCNC1 + Cn1cc(/C=C2\C(=O)Nc3cccnc32)c2ccccc21 [GW441756] (first compound 0.02 µM, partner dose 0.4 µM)	137%
COc1cc(Nc2ncc(F)c(Nc3ccc4c(n3)NC(=O)C(C)(C)O4)n2)cc(OC)c1OC [Tamatinib] + COc1cc(N2CCC(N3CCN(C)CC3)CC2)ccc1Nc1ncc(Cl)c(Nc2ccccc2S(=O)(=O)C(C)C)n1 [NVP-TAE684] (first compound 0.4 µM, partner dose 0.08 µM)	198%
NC(=O)Nc1cc(-c2cccc(F)c2)sc1C(=O)N[C@H]1CCCNC1 + CCN(CC)CCCCNc1ncc2cc(-c3cc(OC)cc(OC)c3)c(NC(=O)NC(C)(C)C)nc2n1 [PD173074] (first compound 0.02 µM, partner dose 0.1 µM)	199%
O=C(CCCCCCC(=O)Nc1ccccc1)NO [vorinostat] + CCCCCCCCCCCC1=C(O)C(=O)C=C(O)C1=O [Embelin] (first compound 0.08 µM, partner dose 1.2 µM)	143%

Compound	cleaved PARP positive nuclei fraction
O=C(Nc1cccc(Cl)c1)Nc1ncc(CCNc2ncnc3ccsc23)s1 + COc1ccc(-c2ccc3c(N4CCOCC4)nc(N4C[C@@H](C)O[C@@H](C)C4)nc3n2)cc1CO [KU0063794] (first compound 0.0008 µM, partner dose 0.02 µM)	101%
Cc1nc(Nc2ncc(C(=O)Nc3c(C)cccc3Cl)s2)cc(N2CCN(CCO)CC2)n1 [dasatanib] + CCN(CC)CCCCNc1ncc2cc(-c3cc(OC)cc(OC)c3)c(NC(=O)NC(C)(C)C)nc2n1 [PD173074] (first compound 0.004 µM, partner dose 0.1 µM)	190%
CC1(C)NC(=O)N(c2ccc([N+](=O)[O-])c(C(F)(F)F)c2)C1=O [nilutamide] + COc1ccc(COc2ccc(Cc3cnc(N)nc3N)cc2OC)cc1 [GW2580] (first compound 1 µM, partner dose 1 µM)	48.7%
COCC[n+]1c2c(n(Cc3cnccn3)c1C)C(=O)c1ccccc1C2=O + CCc1ccc(CCOc2ccc(CC3SC(=O)NC3=O)cc2)nc1 [pioglitazone] (first compound 0.0004 µM, partner dose 2 µM)	39.3%
O=C(CCCCCCC(=O)Nc1ccccc1)NO [vorinostat] + COc1ccc(-c2ccc3c(N4CCOCC4)nc(N4C[C@@H](C)O[C@@H](C)C4)nc3n2)cc1CO [KU0063794] (first compound 0.08 µM, partner dose 0.02 µM)	130%
COc1cc(Nc2ncc(F)c(Nc3ccc4c(n3)NC(=O)C(C)(C)O4)n2)cc(OC)c1OC [Tamatinib] + O=S(=O)(c1ccccc1)N(CC(F)(F)F)c1ccc(C(O)(C(F)(F)F)C(F)(F)F)cc1 [T0901317] (first compound 0.4 µM, partner dose 1.4 µM)	149%
NC(=O)Nc1cc(-c2cccc(F)c2)sc1C(=O)N[C@H]1CCCNC1 + O=S(=O)(c1ccccc1)N(CC(F)(F)F)c1ccc(C(O)(C(F)(F)F)C(F)(F)F)cc1 [T0901317] (first compound 0.02 µM, partner dose 1.4 µM)	196%
Cn1nnc2c(C(N)=O)ncn2c1=O [temozolomide] + COc1ccc(-c2ccc3c(N4CCOCC4)nc(N4C[C@@H](C)O[C@@H](C)C4)nc3n2)cc1CO [KU0063794] (first compound 2 µM, partner dose 0.02 µM)	46.1%
Nc1cccc2c1CN(C1CCC(=O)NC1=O)C2=O (centres undefined) [lenalidomide] + c1cc(-c2cnn3cc(-c4ccc(OCCN5CCCCC5)cc4)cnc23)ccn1 [Dorsomorphin] (first compound 1 µM, partner dose 0.4 µM)	54%
Cn1cncc1[C@@](N)(c1ccc(Cl)cc1)c1ccc2c(c1)c(-c1cccc(Cl)c1)cc(=O)n2C [tipifarnib] + c1cc(-c2cnn3cc(-c4ccc(OCCN5CCCCC5)cc4)cnc23)ccn1 [Dorsomorphin] (first compound 0.01 µM, partner dose 0.4 µM)	189%
Cc1cc(N2CCOCC2)cc2[nH]c(-c3c(NC[C@@H](O)c4cccc(Cl)c4)cc[nH]c3=O)nc12 + Cn1cc(/C=C2\C(=O)Nc3cccnc32)c2ccccc21 [GW441756] (first compound 0.2 µM, partner dose 0.4 µM)	37.9%
Cn1c(Nc2ccc(C(F)(F)F)cc2)nc2cc(Oc3ccnc(-c4ncc(C(F)(F)F)[nH]4)c3)ccc21 + Oc1nc(-c2ccc(C(F)(F)F)cc2)nc2c1CSCC2 [XAV939] (first compound 0.08 µM, partner dose 2 µM)	406%
Cn1nnc2c(C(N)=O)ncn2c1=O [temozolomide] + CC(C)CCN1c2nc(Nc3cc(F)c(O)c(F)c3)ncc2N(C)C(=O)C1C [BID1870] (first compound 2 µM, partner dose 0.2 µM)	57.7%
C[C@]1(c2nc3c(C(N)=O)cccc3[nH]2)CCCN1 [Veliparib] + O=C(O)C(=O)Nc1sc2c(c1C(=O)O)CCNC2 [TCS401] (first compound 1.4 µM, partner dose 1.66667 µM)	135%
O=C(Nc1cccc(Cl)c1)Nc1ncc(CCNc2ncnc3ccsc23)s1 + COc1cc2ncnc(Nc3ccc(Oc4ccccc4)cc3)c2cc1OC [SrcI1] (first compound 0.0008 µM, partner dose 2 µM)	334%
NC(=O)Nc1cc(-c2cccc(F)c2)sc1C(=O)N[C@H]1CCCNC1 + O=c1cc(-c2cccc3c2Sc2ccccc2S3)oc(N2CCOCC2)c1 [KU55933] (first compound 0.02 µM, partner dose 1 µM)	114%
CC(C)(C)c1cnc(CSc2cnc(NC(=O)C3CCNCC3)s2)o1 + N#Cc1c(O)c2c(-c3ccc(-c4ccccc4O)cc3)csc2[nH]c1=O [A769662] (first compound 0.01 µM, partner dose 2 µM)	38%

Some values from the list.
cleaved PARP positive nuclei fraction with NC(=O)Nc1cc(-c2cccc(F)c2)sc1C(=O)N[C@H]1CCCNC1 + O=c1cc(-c2cccc3c2Sc2ccccc2S3)oc(N2CCOCC2)c1 [KU55933] (first compound 0.02 µM, partner dose 1 µM) is entered as 114%
cleaved PARP positive nuclei fraction with Cn1nnc2c(C(N)=O)ncn2c1=O [temozolomide] + CC(C)CCN1c2nc(Nc3cc(F)c(O)c(F)c3)ncc2N(C)C(=O)C1C [BID1870] (first compound 2 µM, partner dose 0.2 µM) is entered as 57.7%

Source: the supplement of paper PMC4604168 (melanoma cell lines)
